No constants are given. Whether binding was seen depends on the method and setting. In cells and extracts the contact can be indirect. Some entries that bind do so weakly or less than the wild type.

By UniProt entry, the sequences of proteins in these tests, tags left out.
UniProt P70288: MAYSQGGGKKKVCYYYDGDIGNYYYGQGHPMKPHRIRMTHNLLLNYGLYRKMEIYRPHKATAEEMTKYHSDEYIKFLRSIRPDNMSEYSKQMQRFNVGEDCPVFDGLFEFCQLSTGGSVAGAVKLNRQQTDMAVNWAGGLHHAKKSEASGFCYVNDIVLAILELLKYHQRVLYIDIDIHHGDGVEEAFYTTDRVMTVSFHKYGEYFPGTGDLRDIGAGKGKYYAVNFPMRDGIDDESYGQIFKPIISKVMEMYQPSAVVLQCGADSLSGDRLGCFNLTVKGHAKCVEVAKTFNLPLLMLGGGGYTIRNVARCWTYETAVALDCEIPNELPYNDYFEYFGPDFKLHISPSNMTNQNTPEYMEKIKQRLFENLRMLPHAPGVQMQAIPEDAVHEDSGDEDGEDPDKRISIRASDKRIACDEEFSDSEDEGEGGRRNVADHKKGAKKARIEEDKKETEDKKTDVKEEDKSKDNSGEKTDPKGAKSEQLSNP

In the experiment the target is T1, Rb2/p130 (mouse (endogenous in NIH3T3)) (UniProt Q64700).
T1 sequence: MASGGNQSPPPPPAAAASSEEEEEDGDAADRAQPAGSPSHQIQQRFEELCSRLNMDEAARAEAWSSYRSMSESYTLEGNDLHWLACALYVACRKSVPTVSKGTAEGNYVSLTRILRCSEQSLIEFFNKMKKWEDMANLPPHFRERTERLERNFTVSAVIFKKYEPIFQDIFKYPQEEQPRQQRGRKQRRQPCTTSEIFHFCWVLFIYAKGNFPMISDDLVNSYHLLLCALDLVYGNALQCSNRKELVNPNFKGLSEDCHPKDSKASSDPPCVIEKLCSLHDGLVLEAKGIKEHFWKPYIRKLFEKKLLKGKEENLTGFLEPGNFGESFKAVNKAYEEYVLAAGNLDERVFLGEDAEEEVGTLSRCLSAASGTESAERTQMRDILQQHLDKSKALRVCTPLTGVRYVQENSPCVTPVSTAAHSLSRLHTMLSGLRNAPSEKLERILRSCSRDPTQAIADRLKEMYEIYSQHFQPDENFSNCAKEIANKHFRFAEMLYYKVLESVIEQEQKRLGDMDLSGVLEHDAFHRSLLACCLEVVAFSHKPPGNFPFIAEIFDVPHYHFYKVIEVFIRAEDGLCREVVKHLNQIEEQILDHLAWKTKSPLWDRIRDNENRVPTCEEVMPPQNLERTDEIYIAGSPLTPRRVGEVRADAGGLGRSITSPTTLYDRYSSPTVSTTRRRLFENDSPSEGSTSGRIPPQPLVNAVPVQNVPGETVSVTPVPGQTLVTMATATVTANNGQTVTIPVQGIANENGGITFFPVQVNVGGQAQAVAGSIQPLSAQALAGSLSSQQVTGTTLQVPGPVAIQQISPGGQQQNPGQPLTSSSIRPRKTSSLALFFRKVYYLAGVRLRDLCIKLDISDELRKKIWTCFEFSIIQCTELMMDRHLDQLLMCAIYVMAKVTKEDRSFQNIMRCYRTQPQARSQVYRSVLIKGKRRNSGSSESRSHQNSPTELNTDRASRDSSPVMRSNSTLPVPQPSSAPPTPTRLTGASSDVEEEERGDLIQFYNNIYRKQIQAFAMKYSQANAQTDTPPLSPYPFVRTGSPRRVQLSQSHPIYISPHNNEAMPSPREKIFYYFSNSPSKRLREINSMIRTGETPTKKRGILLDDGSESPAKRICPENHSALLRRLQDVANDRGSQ
Kind of experiment: co-IP; nuclear extract of S-phase NIH3T3 cells (16 h after re-addition of fully supplemented medium); antibody 2.5 ug/ml for 60 min at 4 C, Protein G Sepharose in IP-buffer (PBS, 1% Triton-X-100, 1 mM DTT, 0.2 mM PMSF, 1 mM NaF) for 2 h at 4 C, 4 washes; SDS-PAGE and immunoblotting.

For “deacetylase HDAC II (from UniProt P70288 1-488) (enzyme)”, the binding entry is listed as “binds”.

Values taken from publication PMC3454344.
